At least one compound was matched to its structure with a doubt left.
Assays:
SARS-CoV = format: cell-based
HIV = settings: cited from earlier work

For `Nc1ccn([C@@H]2CS[C@H](CO)O2)c(=O)n1` [Lamivudine], the “Inhibition of Cytopathic Effect” value (SARS-CoV) is given as “No” and the IC50 (HIV) is given as 0.6 to 34 ng/mL.

Source: patent US7482149B2 (priority 2003, dated 2009)
